PubChem BioAssay AID1224830 | NIAID, 2016

Test: 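Genes whose knock-down alters the TNF-alpha reporter response to LPS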 (primary screen)
Cells: human THP-1 monocytic leukaemia cells, TNF dual-luciferase reporter clone, PMA-differentiated to macrophage-like cells
Reagents: siRNA pool against human genes, 50 nM
Time to read-out: LPS for 4 h, given about 3 days after siRNA transfection
Treatment: bacterial LPS (TLR4 ligand), 10 ng/ml
Measurement: 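TNF firefly reporter luminescence divided by renilla, normalised to the plate median, then turned into a robust z-score for each replicate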
Scale: TNF reporter robust z-score: higher = stronger TNF reporter response to LPS
Active means: 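Each well counts as active if its z-score is over 2.8 or under -1.5; controls are left without a call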
Here is a random part of about 18,000 reagents tested. About 2,900 of them (16%) count as active. 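Calls are made per well; low scores hint the gene aids the LPS response, high scores that it dampens it.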 Repeated entries: four replicate wells of each siRNA pool.

TNF reporter robust z-score | call | gene | PubChem SID
0.16 | inactive | NCCRP1 (NCCRP1, F-box associated domain containing) | SID315464138
0.91 | inactive | NCCRP1 (NCCRP1, F-box associated domain containing) | SID315464138
1.43 | inactive | NCCRP1 (NCCRP1, F-box associated domain containing) | SID315464138
0.49 | inactive | NCCRP1 (NCCRP1, F-box associated domain containing) | SID315464138
-1.8 | active | SLC13A4 | SID315455746
-1.78 | active | SLC13A4 | SID315455746
-2.13 | active | SLC13A4 | SID315455746
-1.64 | active | SLC13A4 | SID315455746
-0.54 | inactive | SESTD1 (SEC14 and spectrin domain containing 1) | SID315460908
-0.99 | inactive | SESTD1 (SEC14 and spectrin domain containing 1) | SID315460908
-0.6 | inactive | SESTD1 (SEC14 and spectrin domain containing 1) | SID315460908
-0.55 | inactive | SESTD1 (SEC14 and spectrin domain containing 1) | SID315460908
1.41 | inactive | DEFB112 (defensin beta 112) | SID315463377
-0.82 | inactive | DEFB112 (defensin beta 112) | SID315463377
-0.7 | inactive | DEFB112 (defensin beta 112) | SID315463377
-0.56 | inactive | DEFB112 (defensin beta 112) | SID315463377
-1.15 | inactive | SUN2 (Sad1 and UNC84 domain containing 2) | SID315455455
-0.83 | inactive | SUN2 (Sad1 and UNC84 domain containing 2) | SID315455455
-0.97 | inactive | SUN2 (Sad1 and UNC84 domain containing 2) | SID315455455
-0.81 | inactive | DRC8 (dynein regulatory complex subunit 8) | SID315460300
0.56 | inactive | DRC8 (dynein regulatory complex subunit 8) | SID315460300
1.08 | inactive | DRC8 (dynein regulatory complex subunit 8) | SID315460300
-0.34 | inactive | DRC8 (dynein regulatory complex subunit 8) | SID315460300
0.89 | inactive | LCE4A (late cornified envelope 4A) | SID315463008
-1.02 | inactive | LCE4A (late cornified envelope 4A) | SID315463008
-0.54 | inactive | LCE4A (late cornified envelope 4A) | SID315463008
0.07 | inactive | LCE4A (late cornified envelope 4A) | SID315463008
-0.06 | inactive | TAPT1 (transmembrane anterior posterior transformation 1) | SID315463095
-0.22 | inactive | TAPT1 (transmembrane anterior posterior transformation 1) | SID315463095
-0.74 | inactive | TAPT1 (transmembrane anterior posterior transformation 1) | SID315463095
-0.18 | inactive | TAPT1 (transmembrane anterior posterior transformation 1) | SID315463095
-0.46 | inactive | RHO (rhodopsin) | SID315451130
0.2 | inactive | RHO (rhodopsin) | SID315451130
-0.68 | inactive | RHO (rhodopsin) | SID315451130
0.23 | inactive | RHO (rhodopsin) | SID315451130
2.99 | active | CRLF2 (cytokine receptor like factor 2) | SID315458830
-0.27 | inactive | CRLF2 (cytokine receptor like factor 2) | SID315458830
0.73 | inactive | CRLF2 (cytokine receptor like factor 2) | SID315458830
0.18 | inactive | CRLF2 (cytokine receptor like factor 2) | SID315458830
0.69 | inactive | C20orf144 (chromosome 20 open reading frame 144) | SID315461818
2.18 | inactive | C20orf144 (chromosome 20 open reading frame 144) | SID315461818
-0.84 | inactive | C20orf144 (chromosome 20 open reading frame 144) | SID315461818
-1.41 | inactive | C20orf144 (chromosome 20 open reading frame 144) | SID315461818
-0.68 | inactive | PPWD1 (peptidylprolyl isomerase domain and WD repeat containing 1) | SID315455212
-0.2 | inactive | PPWD1 (peptidylprolyl isomerase domain and WD repeat containing 1) | SID315455212
-0.58 | inactive | PPWD1 (peptidylprolyl isomerase domain and WD repeat containing 1) | SID315455212
0.01 | inactive | PPWD1 (peptidylprolyl isomerase domain and WD repeat containing 1) | SID315455212
